The source of these data is patent US20060057665A1, “Galectin-14 therapeutic molecule and uses thereof” (The University of Melbourne, priority 2001, published 2006).

By UniProt entry, the sequences of proteins in these tests, tags left out. Where a name states a change or a piece, a line headed by the entry shows the natural chain unless it says otherwise.
UniProt P19137: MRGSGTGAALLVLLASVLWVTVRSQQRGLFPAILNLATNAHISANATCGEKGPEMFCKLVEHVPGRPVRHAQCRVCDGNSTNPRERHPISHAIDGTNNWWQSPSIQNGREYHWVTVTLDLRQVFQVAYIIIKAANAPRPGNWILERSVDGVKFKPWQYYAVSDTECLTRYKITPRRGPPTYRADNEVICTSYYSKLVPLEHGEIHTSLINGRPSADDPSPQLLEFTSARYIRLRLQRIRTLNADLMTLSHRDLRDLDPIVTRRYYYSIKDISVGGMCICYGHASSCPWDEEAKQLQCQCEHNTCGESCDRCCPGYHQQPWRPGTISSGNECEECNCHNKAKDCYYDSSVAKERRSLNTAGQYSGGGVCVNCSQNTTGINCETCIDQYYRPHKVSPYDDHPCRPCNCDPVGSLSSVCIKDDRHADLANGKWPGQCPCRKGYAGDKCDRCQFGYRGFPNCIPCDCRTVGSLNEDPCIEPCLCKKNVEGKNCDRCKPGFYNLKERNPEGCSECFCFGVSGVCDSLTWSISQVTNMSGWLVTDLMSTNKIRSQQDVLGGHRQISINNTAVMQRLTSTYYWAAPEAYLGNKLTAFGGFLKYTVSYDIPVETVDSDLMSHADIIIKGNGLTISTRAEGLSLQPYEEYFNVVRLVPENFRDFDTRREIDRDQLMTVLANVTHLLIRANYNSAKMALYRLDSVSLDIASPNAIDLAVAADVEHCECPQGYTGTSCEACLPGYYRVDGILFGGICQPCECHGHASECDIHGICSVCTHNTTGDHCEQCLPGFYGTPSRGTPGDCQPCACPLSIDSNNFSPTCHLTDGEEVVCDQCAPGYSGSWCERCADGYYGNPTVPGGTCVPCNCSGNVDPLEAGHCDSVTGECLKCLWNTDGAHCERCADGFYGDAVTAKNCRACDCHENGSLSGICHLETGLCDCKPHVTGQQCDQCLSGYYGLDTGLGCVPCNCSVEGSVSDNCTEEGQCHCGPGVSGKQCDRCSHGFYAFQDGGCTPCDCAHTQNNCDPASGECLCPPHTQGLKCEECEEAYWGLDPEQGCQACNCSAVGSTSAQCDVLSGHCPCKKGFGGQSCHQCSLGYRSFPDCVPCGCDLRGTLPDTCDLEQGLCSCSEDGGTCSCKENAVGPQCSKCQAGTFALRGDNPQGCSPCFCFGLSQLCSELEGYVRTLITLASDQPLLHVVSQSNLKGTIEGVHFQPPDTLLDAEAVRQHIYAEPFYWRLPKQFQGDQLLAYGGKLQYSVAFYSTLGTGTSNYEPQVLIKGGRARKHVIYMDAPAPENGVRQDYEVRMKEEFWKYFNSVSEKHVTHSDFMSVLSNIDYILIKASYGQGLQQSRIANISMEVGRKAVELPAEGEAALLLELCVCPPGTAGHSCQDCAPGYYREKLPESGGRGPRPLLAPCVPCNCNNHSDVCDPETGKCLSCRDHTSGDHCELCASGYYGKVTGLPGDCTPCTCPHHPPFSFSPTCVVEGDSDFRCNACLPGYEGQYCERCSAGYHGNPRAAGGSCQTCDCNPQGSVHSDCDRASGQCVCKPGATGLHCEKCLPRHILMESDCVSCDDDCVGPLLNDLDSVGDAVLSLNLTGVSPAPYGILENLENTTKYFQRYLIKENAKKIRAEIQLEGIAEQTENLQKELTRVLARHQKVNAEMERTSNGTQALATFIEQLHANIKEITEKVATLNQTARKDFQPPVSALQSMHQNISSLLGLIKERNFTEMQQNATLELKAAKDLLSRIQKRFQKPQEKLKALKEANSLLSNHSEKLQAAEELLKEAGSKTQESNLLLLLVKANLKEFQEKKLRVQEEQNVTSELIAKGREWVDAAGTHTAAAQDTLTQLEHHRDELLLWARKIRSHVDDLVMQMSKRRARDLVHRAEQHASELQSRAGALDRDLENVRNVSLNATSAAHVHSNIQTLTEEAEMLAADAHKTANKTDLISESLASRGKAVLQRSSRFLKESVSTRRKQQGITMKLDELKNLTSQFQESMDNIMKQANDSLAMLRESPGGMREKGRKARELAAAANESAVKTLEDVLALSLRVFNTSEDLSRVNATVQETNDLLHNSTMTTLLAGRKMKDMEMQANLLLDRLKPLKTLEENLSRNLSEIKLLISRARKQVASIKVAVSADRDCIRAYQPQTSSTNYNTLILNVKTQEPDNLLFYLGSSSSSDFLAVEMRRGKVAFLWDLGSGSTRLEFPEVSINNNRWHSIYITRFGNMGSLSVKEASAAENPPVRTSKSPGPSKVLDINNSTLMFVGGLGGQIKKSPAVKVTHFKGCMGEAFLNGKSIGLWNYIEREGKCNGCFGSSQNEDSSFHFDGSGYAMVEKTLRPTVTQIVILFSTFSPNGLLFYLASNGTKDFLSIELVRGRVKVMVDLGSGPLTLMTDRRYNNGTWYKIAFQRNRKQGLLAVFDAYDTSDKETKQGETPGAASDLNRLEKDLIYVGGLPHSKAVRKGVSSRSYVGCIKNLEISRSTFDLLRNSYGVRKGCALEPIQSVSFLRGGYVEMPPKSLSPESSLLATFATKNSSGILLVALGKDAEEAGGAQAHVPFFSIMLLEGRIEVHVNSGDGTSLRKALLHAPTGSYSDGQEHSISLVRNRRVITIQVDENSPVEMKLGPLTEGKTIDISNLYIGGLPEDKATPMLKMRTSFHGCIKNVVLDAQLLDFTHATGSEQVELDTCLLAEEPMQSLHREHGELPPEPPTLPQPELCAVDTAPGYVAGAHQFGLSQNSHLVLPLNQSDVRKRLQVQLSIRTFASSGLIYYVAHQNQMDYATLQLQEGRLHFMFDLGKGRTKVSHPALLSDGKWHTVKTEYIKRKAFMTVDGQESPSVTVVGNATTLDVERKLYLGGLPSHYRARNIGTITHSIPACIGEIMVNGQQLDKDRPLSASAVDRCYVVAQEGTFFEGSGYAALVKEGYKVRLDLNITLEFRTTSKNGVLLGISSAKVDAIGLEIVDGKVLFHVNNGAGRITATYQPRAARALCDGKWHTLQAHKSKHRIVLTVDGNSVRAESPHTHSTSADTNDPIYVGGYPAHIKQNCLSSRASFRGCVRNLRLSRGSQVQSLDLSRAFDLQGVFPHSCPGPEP
UniProt P02469: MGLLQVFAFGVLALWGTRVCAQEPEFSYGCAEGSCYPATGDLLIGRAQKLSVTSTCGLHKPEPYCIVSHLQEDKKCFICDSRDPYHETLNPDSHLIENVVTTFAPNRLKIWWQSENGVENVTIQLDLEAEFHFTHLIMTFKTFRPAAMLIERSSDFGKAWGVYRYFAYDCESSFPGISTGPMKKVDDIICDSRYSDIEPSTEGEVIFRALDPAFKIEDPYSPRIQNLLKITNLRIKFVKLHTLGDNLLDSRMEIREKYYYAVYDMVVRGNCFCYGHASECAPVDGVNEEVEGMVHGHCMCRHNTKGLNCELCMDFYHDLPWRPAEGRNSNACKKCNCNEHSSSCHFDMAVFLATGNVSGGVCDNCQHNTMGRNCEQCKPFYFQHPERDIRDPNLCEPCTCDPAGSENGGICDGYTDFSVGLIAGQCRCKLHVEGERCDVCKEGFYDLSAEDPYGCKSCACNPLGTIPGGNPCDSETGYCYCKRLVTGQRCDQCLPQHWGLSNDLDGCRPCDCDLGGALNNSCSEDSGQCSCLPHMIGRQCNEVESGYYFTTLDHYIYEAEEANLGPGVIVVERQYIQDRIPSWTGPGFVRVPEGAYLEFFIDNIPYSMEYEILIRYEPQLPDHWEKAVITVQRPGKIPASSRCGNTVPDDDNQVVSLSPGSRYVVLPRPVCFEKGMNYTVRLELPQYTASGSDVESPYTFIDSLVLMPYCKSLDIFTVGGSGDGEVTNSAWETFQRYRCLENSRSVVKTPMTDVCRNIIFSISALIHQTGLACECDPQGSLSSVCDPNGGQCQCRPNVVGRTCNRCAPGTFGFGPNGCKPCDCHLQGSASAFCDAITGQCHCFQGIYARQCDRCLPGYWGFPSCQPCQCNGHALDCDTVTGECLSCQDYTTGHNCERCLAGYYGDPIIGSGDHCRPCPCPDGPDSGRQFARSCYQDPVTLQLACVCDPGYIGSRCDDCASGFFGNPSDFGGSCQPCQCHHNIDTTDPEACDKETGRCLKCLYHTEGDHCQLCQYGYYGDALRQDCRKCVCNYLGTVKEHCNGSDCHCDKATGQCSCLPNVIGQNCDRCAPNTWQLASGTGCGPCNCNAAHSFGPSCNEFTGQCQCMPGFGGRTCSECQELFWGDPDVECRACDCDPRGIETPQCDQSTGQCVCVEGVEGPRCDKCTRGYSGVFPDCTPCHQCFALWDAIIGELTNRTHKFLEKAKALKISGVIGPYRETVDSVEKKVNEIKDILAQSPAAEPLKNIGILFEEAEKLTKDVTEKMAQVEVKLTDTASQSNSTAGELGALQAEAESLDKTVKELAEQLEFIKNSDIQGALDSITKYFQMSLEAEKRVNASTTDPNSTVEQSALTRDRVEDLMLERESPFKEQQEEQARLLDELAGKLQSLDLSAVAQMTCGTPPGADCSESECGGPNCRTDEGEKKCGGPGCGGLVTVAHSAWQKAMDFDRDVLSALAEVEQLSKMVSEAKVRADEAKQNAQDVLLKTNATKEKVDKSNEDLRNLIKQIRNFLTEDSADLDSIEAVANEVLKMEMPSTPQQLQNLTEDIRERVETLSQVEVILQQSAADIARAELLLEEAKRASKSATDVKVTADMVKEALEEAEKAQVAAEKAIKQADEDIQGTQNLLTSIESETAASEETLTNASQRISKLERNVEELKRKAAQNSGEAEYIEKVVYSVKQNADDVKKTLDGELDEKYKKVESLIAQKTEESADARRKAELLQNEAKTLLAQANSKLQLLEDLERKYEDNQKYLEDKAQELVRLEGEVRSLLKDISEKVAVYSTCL
UniProt P02468: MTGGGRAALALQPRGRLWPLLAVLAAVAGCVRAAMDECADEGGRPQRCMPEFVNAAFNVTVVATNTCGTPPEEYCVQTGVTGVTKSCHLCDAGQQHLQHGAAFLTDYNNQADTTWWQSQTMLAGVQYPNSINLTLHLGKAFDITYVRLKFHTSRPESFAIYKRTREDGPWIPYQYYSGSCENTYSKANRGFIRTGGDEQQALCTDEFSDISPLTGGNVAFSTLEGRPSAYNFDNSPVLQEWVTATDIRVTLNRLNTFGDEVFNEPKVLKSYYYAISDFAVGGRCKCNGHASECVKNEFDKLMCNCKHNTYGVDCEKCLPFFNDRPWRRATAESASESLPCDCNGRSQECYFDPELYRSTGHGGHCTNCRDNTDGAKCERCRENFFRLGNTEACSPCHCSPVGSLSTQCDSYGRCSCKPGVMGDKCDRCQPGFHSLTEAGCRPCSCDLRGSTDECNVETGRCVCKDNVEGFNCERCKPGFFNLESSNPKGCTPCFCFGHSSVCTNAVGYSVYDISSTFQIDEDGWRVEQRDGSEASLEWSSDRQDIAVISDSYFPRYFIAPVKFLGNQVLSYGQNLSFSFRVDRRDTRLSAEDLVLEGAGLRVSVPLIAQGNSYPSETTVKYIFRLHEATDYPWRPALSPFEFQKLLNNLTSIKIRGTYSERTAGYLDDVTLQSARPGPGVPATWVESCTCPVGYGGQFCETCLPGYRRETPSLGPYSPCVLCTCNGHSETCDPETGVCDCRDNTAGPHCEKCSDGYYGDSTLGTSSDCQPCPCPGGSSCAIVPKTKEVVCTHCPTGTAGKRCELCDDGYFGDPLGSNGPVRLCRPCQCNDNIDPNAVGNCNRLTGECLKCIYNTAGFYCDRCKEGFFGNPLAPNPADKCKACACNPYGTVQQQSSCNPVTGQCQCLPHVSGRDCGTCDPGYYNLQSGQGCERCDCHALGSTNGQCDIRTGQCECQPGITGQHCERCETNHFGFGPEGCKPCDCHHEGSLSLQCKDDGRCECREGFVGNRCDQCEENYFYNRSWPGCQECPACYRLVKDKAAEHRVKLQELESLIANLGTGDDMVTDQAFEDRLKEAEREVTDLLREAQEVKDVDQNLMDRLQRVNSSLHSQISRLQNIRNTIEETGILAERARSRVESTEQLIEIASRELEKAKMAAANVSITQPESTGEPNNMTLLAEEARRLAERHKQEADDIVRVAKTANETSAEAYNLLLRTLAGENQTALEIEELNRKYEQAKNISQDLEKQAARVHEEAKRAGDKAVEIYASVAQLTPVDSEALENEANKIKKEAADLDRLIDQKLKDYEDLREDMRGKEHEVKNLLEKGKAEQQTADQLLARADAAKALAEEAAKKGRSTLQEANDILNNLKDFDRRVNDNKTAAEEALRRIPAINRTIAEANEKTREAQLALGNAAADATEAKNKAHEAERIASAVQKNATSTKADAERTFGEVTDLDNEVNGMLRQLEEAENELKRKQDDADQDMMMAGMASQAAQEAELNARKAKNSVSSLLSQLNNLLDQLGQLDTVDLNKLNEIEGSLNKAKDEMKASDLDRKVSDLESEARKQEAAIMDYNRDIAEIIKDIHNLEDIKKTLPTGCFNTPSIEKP

Results are given in words; binding and its absence hold for the method and conditions named. Some entries that bind do so weakly or less than the wild type. Sequences can lack the tags named with a protein.

For this test, the target named is laminin from Engelbreth-Holm-Swarm murine sarcoma (Sigma) (murine) (UniProt P19137+P02469+P02468). As to the kind of experiment: solid-phase binding assay, laminin coated on 96-well plate, anti-GST HRP detection, A450.

B1: recombinant GST-galectin-14 fusion protein (protein, not shown: a dimerising Fc or GST)
chain: MQSESGHEGDEELAFRDTQPPYINLPIPFTGRIEGGLQDGHKVTVMGRVLSTDENRFQVDFQMGISDTNNVAFHFNPRFEGSGYVVCNTMQLGNWGPEEKKMQMPFQKGSLFEICFKVDSSSFKVTVNGSIFLDYAHRLPFEQVNAISIGGCVHVSYISFQI
As to B1, the binding result is reported as “binds”.
